Data as given in the supplement of paper PMC10849652.
This is one part of the list. Residues, ends and D or L forms follow the SMILES beside them. *: point of attachment. Cbz = O=C(OCc1ccccc1)*

Sequences of proteins named here, by UniProt entry; tags and fusion partners are left off. A change or cut given only in a name is not applied to a line headed by its entry.
UniProt Q14542: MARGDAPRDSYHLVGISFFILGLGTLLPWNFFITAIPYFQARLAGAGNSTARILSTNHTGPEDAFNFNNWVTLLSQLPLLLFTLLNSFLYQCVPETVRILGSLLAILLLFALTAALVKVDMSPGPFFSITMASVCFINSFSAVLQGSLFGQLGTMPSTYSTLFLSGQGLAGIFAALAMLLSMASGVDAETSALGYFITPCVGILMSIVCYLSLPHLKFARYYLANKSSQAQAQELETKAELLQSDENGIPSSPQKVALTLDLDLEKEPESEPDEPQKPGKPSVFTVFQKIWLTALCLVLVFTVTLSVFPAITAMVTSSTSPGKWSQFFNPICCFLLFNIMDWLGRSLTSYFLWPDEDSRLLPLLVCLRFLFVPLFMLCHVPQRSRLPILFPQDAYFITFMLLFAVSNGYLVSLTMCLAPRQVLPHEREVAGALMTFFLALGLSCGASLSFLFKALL
UniProt Q9UP95: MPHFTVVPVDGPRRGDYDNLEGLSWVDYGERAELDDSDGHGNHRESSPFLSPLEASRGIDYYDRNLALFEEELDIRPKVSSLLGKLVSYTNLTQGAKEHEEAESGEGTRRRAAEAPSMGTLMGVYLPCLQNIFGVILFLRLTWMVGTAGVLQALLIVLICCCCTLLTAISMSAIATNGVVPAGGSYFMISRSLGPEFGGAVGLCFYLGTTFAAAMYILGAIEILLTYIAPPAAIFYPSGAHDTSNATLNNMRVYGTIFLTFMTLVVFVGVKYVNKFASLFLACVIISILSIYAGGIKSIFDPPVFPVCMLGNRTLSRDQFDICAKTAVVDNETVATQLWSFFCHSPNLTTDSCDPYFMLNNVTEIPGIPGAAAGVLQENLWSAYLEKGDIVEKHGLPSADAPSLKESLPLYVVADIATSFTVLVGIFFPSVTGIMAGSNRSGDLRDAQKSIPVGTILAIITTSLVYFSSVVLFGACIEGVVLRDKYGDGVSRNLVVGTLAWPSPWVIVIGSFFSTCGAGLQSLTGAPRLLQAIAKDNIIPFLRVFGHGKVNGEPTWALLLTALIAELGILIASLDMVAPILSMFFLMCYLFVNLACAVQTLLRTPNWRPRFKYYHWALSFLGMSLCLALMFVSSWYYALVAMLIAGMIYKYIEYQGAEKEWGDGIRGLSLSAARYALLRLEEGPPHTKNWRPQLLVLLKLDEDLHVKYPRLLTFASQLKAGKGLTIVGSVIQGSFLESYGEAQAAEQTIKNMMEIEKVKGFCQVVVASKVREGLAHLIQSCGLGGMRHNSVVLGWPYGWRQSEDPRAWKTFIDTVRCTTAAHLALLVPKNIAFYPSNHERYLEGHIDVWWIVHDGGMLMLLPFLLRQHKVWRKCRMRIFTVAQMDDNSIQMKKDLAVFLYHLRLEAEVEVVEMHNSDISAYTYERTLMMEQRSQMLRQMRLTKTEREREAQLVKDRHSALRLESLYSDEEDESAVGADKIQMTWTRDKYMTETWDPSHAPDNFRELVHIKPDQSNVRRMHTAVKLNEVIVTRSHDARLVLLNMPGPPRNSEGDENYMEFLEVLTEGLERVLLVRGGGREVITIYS
UniProt Q9H1U9: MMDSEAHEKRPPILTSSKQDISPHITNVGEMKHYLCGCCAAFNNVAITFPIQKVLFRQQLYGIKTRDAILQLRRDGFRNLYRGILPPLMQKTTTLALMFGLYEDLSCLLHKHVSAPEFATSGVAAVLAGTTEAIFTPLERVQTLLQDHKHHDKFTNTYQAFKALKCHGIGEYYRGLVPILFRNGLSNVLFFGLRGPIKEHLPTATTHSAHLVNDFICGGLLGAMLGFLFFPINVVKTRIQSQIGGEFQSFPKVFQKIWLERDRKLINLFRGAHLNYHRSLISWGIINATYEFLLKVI
UniProt Q8IXU6: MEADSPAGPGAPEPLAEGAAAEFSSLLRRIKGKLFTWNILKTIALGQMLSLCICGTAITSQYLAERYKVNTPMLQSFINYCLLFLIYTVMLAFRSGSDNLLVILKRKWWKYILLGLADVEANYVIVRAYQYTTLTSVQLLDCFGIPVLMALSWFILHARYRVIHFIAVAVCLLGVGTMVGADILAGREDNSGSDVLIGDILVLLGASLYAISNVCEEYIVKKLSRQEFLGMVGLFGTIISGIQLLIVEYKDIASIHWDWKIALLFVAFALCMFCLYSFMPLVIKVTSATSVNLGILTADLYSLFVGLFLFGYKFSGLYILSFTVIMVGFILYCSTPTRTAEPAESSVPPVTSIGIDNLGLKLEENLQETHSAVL
UniProt P49281: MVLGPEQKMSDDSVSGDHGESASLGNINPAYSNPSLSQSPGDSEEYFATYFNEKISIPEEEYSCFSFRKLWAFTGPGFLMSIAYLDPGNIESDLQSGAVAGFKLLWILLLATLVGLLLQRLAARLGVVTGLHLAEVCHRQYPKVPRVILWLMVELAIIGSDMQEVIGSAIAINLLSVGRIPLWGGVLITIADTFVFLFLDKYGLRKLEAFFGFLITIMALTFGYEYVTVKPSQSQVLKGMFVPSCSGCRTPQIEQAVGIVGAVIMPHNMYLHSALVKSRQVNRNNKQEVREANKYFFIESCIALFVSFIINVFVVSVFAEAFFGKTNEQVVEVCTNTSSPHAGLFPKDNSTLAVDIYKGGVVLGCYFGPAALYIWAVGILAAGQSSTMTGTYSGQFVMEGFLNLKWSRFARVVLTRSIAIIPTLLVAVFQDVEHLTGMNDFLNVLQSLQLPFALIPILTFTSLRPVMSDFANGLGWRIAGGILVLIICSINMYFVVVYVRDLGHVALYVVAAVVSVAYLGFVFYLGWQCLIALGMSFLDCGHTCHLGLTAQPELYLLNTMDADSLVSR
UniProt P02730: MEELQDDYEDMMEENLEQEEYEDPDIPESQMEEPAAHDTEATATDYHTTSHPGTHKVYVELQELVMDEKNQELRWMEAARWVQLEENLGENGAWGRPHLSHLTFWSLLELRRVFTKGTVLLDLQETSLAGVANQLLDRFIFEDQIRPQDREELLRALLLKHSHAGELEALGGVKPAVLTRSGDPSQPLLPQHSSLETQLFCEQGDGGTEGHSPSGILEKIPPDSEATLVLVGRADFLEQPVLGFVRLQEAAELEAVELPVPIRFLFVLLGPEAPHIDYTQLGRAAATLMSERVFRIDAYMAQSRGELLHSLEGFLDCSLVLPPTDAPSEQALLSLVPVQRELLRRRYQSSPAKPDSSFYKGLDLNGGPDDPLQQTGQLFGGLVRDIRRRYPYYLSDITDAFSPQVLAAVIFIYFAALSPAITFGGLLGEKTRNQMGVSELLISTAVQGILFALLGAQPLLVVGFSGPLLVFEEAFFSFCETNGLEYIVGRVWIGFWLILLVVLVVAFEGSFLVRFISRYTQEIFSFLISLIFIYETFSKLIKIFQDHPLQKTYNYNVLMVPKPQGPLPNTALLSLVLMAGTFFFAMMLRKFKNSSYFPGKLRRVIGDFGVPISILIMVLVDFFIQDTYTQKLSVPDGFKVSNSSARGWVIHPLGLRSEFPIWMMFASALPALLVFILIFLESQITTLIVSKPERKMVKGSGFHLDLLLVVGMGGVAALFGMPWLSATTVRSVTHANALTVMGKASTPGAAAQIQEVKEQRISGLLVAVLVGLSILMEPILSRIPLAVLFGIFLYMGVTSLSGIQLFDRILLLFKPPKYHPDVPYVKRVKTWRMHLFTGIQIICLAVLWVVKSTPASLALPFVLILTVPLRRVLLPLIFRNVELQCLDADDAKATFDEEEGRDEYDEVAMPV
UniProt Q13433: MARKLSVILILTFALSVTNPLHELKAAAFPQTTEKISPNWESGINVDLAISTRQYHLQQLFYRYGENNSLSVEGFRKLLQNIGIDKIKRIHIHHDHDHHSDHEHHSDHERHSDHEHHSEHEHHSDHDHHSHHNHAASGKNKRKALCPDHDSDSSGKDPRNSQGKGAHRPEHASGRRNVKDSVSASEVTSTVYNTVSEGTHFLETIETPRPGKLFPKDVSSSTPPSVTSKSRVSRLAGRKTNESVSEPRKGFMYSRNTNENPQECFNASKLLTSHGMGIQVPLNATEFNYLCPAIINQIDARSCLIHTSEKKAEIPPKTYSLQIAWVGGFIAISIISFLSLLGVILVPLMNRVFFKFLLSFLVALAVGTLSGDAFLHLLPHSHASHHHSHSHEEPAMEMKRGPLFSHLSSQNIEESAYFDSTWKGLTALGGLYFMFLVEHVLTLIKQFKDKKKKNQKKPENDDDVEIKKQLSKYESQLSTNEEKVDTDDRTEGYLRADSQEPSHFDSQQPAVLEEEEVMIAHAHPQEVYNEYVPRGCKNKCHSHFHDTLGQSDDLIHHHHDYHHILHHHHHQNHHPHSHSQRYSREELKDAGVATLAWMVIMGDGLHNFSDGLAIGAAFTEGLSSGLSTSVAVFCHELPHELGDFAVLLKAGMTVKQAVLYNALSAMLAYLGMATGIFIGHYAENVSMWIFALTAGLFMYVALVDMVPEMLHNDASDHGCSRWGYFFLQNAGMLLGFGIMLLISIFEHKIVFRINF
UniProt Q9H2H9: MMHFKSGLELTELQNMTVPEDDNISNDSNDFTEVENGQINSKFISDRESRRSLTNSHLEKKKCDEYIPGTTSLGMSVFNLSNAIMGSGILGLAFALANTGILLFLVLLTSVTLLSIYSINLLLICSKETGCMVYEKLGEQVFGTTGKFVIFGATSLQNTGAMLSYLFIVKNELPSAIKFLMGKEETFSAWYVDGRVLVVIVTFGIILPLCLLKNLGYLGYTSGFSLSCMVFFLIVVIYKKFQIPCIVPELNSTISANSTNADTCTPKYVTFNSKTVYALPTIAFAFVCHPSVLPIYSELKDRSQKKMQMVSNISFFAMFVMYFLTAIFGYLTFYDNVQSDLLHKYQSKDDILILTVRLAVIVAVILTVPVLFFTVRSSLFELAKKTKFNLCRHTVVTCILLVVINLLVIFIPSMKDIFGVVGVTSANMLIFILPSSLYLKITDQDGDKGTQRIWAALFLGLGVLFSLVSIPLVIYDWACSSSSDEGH
UniProt L0R6Q1: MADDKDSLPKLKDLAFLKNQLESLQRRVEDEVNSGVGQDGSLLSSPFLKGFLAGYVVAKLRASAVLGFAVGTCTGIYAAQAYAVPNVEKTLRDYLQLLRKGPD
UniProt Q8TB61: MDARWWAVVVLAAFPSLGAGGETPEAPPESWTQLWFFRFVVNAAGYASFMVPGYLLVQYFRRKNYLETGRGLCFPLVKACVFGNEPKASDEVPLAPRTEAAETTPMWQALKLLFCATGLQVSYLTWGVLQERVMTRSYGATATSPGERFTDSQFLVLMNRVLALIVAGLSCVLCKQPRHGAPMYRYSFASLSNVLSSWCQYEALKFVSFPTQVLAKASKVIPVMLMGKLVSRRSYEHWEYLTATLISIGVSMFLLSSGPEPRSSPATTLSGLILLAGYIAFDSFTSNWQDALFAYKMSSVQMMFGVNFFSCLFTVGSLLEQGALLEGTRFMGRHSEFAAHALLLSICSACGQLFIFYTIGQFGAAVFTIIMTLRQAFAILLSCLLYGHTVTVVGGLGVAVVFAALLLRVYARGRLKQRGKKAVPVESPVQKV
UniProt P16260: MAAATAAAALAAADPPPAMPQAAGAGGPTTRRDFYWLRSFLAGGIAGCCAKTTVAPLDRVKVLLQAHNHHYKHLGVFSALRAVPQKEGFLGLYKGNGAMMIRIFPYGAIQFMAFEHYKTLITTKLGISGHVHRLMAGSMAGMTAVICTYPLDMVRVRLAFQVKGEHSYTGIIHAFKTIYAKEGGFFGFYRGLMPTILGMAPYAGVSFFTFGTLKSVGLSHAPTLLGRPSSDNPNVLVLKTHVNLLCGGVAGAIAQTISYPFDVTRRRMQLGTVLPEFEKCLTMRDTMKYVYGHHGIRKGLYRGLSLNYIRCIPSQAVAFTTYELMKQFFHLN
UniProt Q70HW3: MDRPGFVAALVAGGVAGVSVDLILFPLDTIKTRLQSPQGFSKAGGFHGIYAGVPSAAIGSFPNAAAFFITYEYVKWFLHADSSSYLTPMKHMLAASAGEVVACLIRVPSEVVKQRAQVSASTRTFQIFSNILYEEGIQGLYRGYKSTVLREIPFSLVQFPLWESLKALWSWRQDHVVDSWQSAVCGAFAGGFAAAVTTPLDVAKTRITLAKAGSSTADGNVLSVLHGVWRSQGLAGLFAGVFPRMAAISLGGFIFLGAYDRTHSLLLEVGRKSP
UniProt P12236: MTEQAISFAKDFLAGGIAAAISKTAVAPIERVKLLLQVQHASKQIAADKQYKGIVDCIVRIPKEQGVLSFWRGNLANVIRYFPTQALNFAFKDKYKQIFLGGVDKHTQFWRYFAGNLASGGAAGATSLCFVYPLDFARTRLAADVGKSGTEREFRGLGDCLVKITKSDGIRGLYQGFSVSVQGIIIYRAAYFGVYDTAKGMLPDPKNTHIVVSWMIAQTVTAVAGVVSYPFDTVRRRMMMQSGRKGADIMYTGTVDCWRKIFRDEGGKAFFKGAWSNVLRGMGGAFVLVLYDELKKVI

Experiments:
Test in all cases: log2 fold change, soluble protein after heating vs DMSO (PISA); higher = thermal stabilisation; K562 cells, 10 uM, 30 min; active = over 0.2 and 3.5 SD of the protein, either way, in both replicates (recomputed)
IRAK-1-4 Inhibitor I = compound: C1COCCN1CCN2C3=CC=CC=C3N=C2NC(=O)C4=CC(=CC=C4)[N+](=O)[O-] [IRAK-1-4 Inhibitor I]
How it was run: (§1)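 K562 cells at 2×10^6 cells/mL were treated for 30 min with 10 μM compound, and aliquots were heated for 3 min over 48°C-58°C before pooling. Extraction used PBS with 0.5% NP-40 at 4°C, and soluble protein was the supernatant after 21,000xg for 90 min, measured by TMTpro 16plex LC-MS/MS with channel sums equalised. Thermal stability values, relative to control samples and from duplicates, are log2 fold changes.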

ibrutinib = compound: C=CC(=O)N1CCC[C@@H](n2nc(-c3ccc(Oc4ccccc4)cc3)c3c(N)ncnc32)C1 [ibrutinib]
How it was run: as §1

[1] = compound: CC(=O)c1cnc2ccc(-c3cc(Cl)c(O)c(Cl)c3)nc2c1N[C@H]1CC[C@H](CN(C)C)CC1
How it was run: as §1

ralimetinib = compound: CC(C)(C)Cn1c(N)nc2ccc(-c3[nH]c(C(C)(C)C)nc3-c3ccc(F)cc3)nc21 [ralimetinib]
How it was run: as §1

[2] = compound: CC(C)(O)CC(=O)NCCn1ccc2ncnc(Nc3ccc(Oc4cccc(C(F)(F)F)c4)c(Cl)c3)c21
How it was run: as §1

[3] = compound: CC(C)C1=C2N=C(C=C(N2N=C1)NCC3=CC=CC=C3)NCCCCCCN
How it was run: as §1

[4] = compound: CC(C)C[C@@H](C=O)NC(=O)[C@H](CC(C)C)NC(=O)[C@H](CC(C)C)NC(=O)OCc1ccccc1
How it was run: as §1

pinometostat = compound: CC(C)N(C[C@H]1O[C@@H](n2cnc3c(N)ncnc32)[C@H](O)[C@@H]1O)[C@H]1C[C@@H](CCc2nc3cc(C(C)(C)C)ccc3[nH]2)C1 [pinometostat]
How it was run: as §1

[5] = compound: CC1=C(C(CC(=O)N1)C2=CC=C(C=C2)C(F)(F)F)C(=O)NC3=C(C=C4C(=C3)C=NN4)F
How it was run: as §1

[6] = compound: CC1=C(C2=C(C=C1)C(=O)C3=CC=CC=C3N2CCCN)C
How it was run: as §1

Measured: log2 fold change

SLC29A2 (UniProt Q14542)
inactive: IRAK-1-4 Inhibitor I -0.026 | ibrutinib 0.028 | [1] -0.024 | ralimetinib 0.005 | [2] 0.033 | [3] 0.116 | [4] 0.053 | pinometostat -0.115 | [5] -0.007 | [6] 0.103

SLC10A4 (UniProt Q96EP9)
inactive: IRAK-1-4 Inhibitor I -0.224 | ibrutinib -0.105 | [1] -0.111 | ralimetinib -0.133 | [2] -0.078 | [3] -0.126 | [4] 0.053 | pinometostat 0.044 | [5] 0.125 | [6] 0.149

SLC4A1AP (UniProt Q9BWU0)
inactive: IRAK-1-4 Inhibitor I -0.054 | ibrutinib -0.033 | [1] -0.031 | ralimetinib -0.006 | [2] -0.062 | [3] -0.001 | [4] 0.028 | pinometostat -0.007 | [5] -0.006 | [6] -0.163

SLC35A3 isoform 2 (UniProt Q9Y2D2)
inactive: IRAK-1-4 Inhibitor I 0.014 | ibrutinib 0.071 | [1] -0.001 | ralimetinib 0.435 | [2] -0.043 | [3] -0.077 | [4] -0.277 | pinometostat -0.11 | [5] -0.047

SLC12A4 (UniProt Q9UP95)
inactive: IRAK-1-4 Inhibitor I -0.004 | ibrutinib -0.029 | [1] -0.033 | ralimetinib 0.036 | [2] 0.013 | [3] -0.042 | [4] -0.002 | pinometostat -0.011 | [5] 0.021 | [6] -0.076

SLC25A25 isoform 3 (UniProt Q6KCM7)
inactive: IRAK-1-4 Inhibitor I -0.001 | ibrutinib 0.002 | [1] 0.029 | ralimetinib -0.013 | [2] 0.016 | [3] 0.005 | [4] -0.01 | pinometostat -0.042 | [5] 0.019 | [6] 0.034

SLC25A51 (UniProt Q9H1U9)
inactive: IRAK-1-4 Inhibitor I 0.078 | ibrutinib 0.014 | [1] 0.011 | ralimetinib -0.035 | [2] 0.037 | [3] 0.095 | [4] 0.041 | pinometostat -0.121 | [5] -0.006 | [6] -0.012

SLC35F2 (UniProt Q8IXU6)
inactive: IRAK-1-4 Inhibitor I 0.095 | ibrutinib 0.102 | [1] 0.009 | ralimetinib -0.103 | [2] 0.012 | [3] 0.039 | [4] 0.043 | pinometostat -0.018 | [5] -0.084 | [6] 0.062

SLC35C1 (UniProt Q96A29)
inactive: IRAK-1-4 Inhibitor I -0.023 | ibrutinib 0.027 | [1] 0.065 | ralimetinib 0.046 | [2] -0.075 | [3] 0.061 | [4] 0.048 | pinometostat 0.073 | [5] -0.037 | [6] -0.042

SLC25A46 (UniProt Q96AG3)
inactive: IRAK-1-4 Inhibitor I 0.039 | ibrutinib -0.023 | [1] -0.034 | ralimetinib -0.027 | [2] -0.075 | [3] 0.028 | [4] -0.033 | pinometostat -0.062 | [5] 0.012 | [6] 0.009

SLC35E1 (UniProt Q96K37)
inactive: IRAK-1-4 Inhibitor I 0.22 | ibrutinib 0.06 | [1] 0.095 | ralimetinib 0.017 | [2] -0.009 | [3] 0.011 | [4] -0.021 | pinometostat -0.06 | [5] 0.007 | [6] -0.084

SLC30A1 (UniProt Q9Y6M5)
inactive: IRAK-1-4 Inhibitor I -0.012 | ibrutinib 0.054 | [1] 0.01 | ralimetinib -0.022 | [2] 0.022 | [3] 0.17 | [4] -0.059 | pinometostat -0.087 | [5] 0.006 | [6] 0.013

SLC11A2 isoform 3 (UniProt P49281)
inactive: IRAK-1-4 Inhibitor I 0.011 | ibrutinib 0.017 | [1] -0.102 | ralimetinib -0.004 | [2] 0.045 | [3] -0.172 | [4] 0.11 | pinometostat 0.037 | [5] 0.008 | [6] 0.051

SLC4A1 (UniProt P02730)
inactive: IRAK-1-4 Inhibitor I -0.034 | ibrutinib 0.098 | [1] -0.078 | ralimetinib -0.116 | [2] 0.025 | [3] 0.079 | [4] -0.015 | pinometostat 0.022 | [5] -0.002 | [6] 0.17

SLC43A1 (UniProt O75387)
inactive: IRAK-1-4 Inhibitor I -0.036 | ibrutinib 0.021 | [1] 0.008 | ralimetinib 0 | [2] 0.018 | [3] 0.065 | [4] -0.014 | pinometostat 0 | [5] 0.046 | [6] 0.121

SLC39A6 (UniProt Q13433)
inactive: IRAK-1-4 Inhibitor I -0.094 | ibrutinib -0.059 | [1] -0.018 | ralimetinib 0.001 | [2] -0.068 | [3] 0.254 | [4] -0.029 | pinometostat -0.031 | [5] -0.012 | [6] -0.049

SLC35C2 isoform 3 (UniProt Q9NQQ7)
inactive: IRAK-1-4 Inhibitor I 0.03 | ibrutinib 0.029 | [1] -0.11 | ralimetinib 0.04 | [2] -0.021 | [3] 0.016 | [4] 0.01 | pinometostat 0.086 | [5] -0.05

SLC25A22 (UniProt Q9H936)
inactive: IRAK-1-4 Inhibitor I 0.022 | ibrutinib -0.002 | [1] 0.015 | ralimetinib -0.039 | [2] 0.002 | [3] 0.037 | [4] -0.028 | pinometostat -0.047 | [5] 0.015 | [6] -0.02

SLC39A14 (UniProt Q15043)
inactive: IRAK-1-4 Inhibitor I 0.023 | ibrutinib 0.013 | [1] -0.019 | ralimetinib -0.093 | [2] 0.034 | [3] 0.026 | [4] 0.018 | pinometostat -0.032 | [5] -0.009 | [6] -0.058

SLC38A1 (UniProt Q9H2H9)
inactive: IRAK-1-4 Inhibitor I 0.004 | ibrutinib -0.026 | [1] 0.022 | ralimetinib -0.053 | [2] -0.017 | [3] 0.08 | [4] -0.038 | pinometostat -0.059 | [5] 0.002 | [6] 0.009

Reprinted at random: 2 records from the list
SLC39A14 (UniProt Q15043)
inactive: IRAK-1-4 Inhibitor I 0.023 | ibrutinib 0.013 | [1] -0.019 | ralimetinib -0.093 | [2] 0.034 | [3] 0.026 | [4] 0.018 | pinometostat -0.032 | [5] -0.009 | [6] -0.058

SLC39A6 (UniProt Q13433)
inactive: IRAK-1-4 Inhibitor I -0.094 | ibrutinib -0.059 | [1] -0.018 | ralimetinib 0.001 | [2] -0.068 | [3] 0.254 | [4] -0.029 | pinometostat -0.031 | [5] -0.012 | [6] -0.049

The list continues.

SLC25A5 (UniProt P05141)
inactive: IRAK-1-4 Inhibitor I 0.046 | ibrutinib 0.007 | [1] 0.018 | ralimetinib 0.125 | [2] 0.042 | [3] 0.095 | [4] -0.116 | pinometostat -0.038 | [5] -0.044 | [6] -0.048

SLC35A4 (UniProt L0R6Q1)
inactive: IRAK-1-4 Inhibitor I 0.039 | ibrutinib 0.034 | [1] 0 | ralimetinib -0.052 | [2] -0.008 | [3] 0.053 | [4] -0.024 | pinometostat -0.04 | [5] 0.049 | [6] 0.141

SLC3A2 (UniProt F5GZS6)
inactive: IRAK-1-4 Inhibitor I 0.059 | ibrutinib 0.092 | [1] 0.006 | ralimetinib 0.21 | [2] 0.029 | [3] 0.095 | [4] -0.248 | pinometostat -0.046 | [5] 0.036 | [6] -0.033

SLC35B2 (UniProt Q8TB61)
inactive: IRAK-1-4 Inhibitor I 0.005 | ibrutinib 0.008 | [1] -0.005 | ralimetinib 0.008 | [2] -0.02 | [3] -0.024 | [4] -0.055 | pinometostat 0.023 | [5] 0.045 | [6] 0.027

SLC25A16 (UniProt P16260)
inactive: IRAK-1-4 Inhibitor I -0.037 | ibrutinib 0.175 | [1] -0.031 | ralimetinib 0.064 | [2] -0.014 | [3] 0.045 | [4] 0.086 | pinometostat 0.065 | [5] 0.015 | [6] 0.093

SLC33A1 (UniProt O00400)
inactive: IRAK-1-4 Inhibitor I 0.006 | ibrutinib 0.023 | [1] 0.006 | ralimetinib 0.044 | [2] -0.025 | [3] -0.057 | [4] -0.088 | pinometostat -0.057 | [5] -0.03 | [6] 0.013

SLC25A26 (UniProt Q70HW3)
inactive: IRAK-1-4 Inhibitor I 0.022 | ibrutinib -0.012 | [1] -0.013 | ralimetinib -0.087 | [2] -0.031 | [3] -0.086 | [4] 0.083 | pinometostat 0.176 | [5] -0.023 | [6] 0.152

SLC25A6 (UniProt P12236)
inactive: IRAK-1-4 Inhibitor I 0.028 | ibrutinib 0 | [1] 0.023 | ralimetinib -0.059 | [2] 0.02 | [3] 0.07 | [4] -0.031 | pinometostat -0.018 | [5] 0.026 | [6] 0.039

SLC16A1 (UniProt P53985)
inactive: IRAK-1-4 Inhibitor I 0.066 | ibrutinib 0.038 | [1] -0.082 | ralimetinib -0.109 | [2] 0.017 | [3] 0.159 | [4] -0.044 | pinometostat -0.042 | [5] 0.002 | [6] 0.111
